Test results taken from patent publication US6592885B2, “Method for making infection-resistant fabricated textile articles for biomedical applications” (priority 2001, dated 2003).

System: S. aureus
Assay: MIC/MBC of native and heated Cipro/Oflox (heat stability)
Type: cell-based
Settings: Staphylococcus aureus, 10^6 S. aureus/ml, TSB, n=6
Description: An inoculum of S. aureus was diluted to obtain a bacterial concentration of 10^6 S. aureus/ml. […] V. Mosby, St. Louis, 1986]. Antibiotic concentrations in the assay were […].

## O=C(O)c1cn(C2CC2)c2cc(N3CCNCC3)c(F)cc2c1=O [Cipro, Ciprofloxacin]
Antibiotic heated to 135° C. for 1 hour (dye bath conditions), 24 hours
  MIC: 2.3 µM
Native antibiotic, turbidity after 24 hours
  MIC: 2.3 µM
